This test addresses T1, Gds1-TAP (S. cerevisiae) (UniProt P41913).
T1 sequence: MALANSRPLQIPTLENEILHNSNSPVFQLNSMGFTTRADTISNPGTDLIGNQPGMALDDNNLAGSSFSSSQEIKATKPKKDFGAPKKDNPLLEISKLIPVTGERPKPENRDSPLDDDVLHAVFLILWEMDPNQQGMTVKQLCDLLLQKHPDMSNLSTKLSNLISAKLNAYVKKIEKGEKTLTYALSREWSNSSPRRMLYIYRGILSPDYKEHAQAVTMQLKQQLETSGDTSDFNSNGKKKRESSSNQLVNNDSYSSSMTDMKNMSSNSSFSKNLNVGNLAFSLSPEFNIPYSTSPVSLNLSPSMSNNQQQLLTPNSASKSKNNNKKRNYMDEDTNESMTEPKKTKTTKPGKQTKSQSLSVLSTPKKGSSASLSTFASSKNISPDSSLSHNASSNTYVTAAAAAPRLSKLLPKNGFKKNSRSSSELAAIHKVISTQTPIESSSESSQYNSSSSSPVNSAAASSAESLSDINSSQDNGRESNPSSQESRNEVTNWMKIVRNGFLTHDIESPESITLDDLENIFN
In words: co-IP.

Results are given in words; binding and its absence hold for the method and conditions named. In cells and extracts the contact can be indirect. Some binding calls cover weakened binding; strength is not graded here. Sequences can lack the tags named with a protein.

B1: Esa1, catalytic subunit of the NuA4 histone H4 acetyltransferase complex (protein, UniProt Q08649 1-445)
chain: MSHDGKEEPGIAKKINSVDDIIIKCQCWVQKNDEERLAEILSINTRKAPPKFYVHYVNYNKRLDEWITTDRINLDKEVLYPKLKATDEDNKKQKKKKATNTSETPQDSLQDGVDGFSRENTDVMDLDNLNVQGIKDENISHEDEIKKLRTSGSMTQNPHEVARVRNLNRIIMGKYEIEPWYFSPYPIELTDEDFIYIDDFTLQYFGSKKQYERYRKKCTLRHPPGNEIYRDDYVSFFEIDGRKQRTWCRNLCLLSKLFLDHKTLYYDVDPFLFYCMTRRDELGHHLVGYFSKEKESADGYNVACILTLPQYQRMGYGKLLIEFSYELSKKENKVGSPEKPLSDLGLLSYRAYWSDTLITLLVEHQKEITIDEISSMTSMTTTDILHTAKTLNILRYYKGQHIIFLNEDILDRYNRLKAKKRRTIDPNRLIWKPPVFTASQLRFAW
On to B1, for which the binding entry is reported as “binds”.
